Measurements as given in US6166290A, “Glutathione-S-conjugate transport in plants” (The Trustees of the University of Pennsylvania, priority 1997, dated 2000).
At least one compound was matched to its structure with a doubt left.

The chains behind the UniProt entries cited, without tags or fusion partners. Where a name states a change or a piece, a line headed by the entry shows the natural chain unless it says otherwise.
UniProt P39109: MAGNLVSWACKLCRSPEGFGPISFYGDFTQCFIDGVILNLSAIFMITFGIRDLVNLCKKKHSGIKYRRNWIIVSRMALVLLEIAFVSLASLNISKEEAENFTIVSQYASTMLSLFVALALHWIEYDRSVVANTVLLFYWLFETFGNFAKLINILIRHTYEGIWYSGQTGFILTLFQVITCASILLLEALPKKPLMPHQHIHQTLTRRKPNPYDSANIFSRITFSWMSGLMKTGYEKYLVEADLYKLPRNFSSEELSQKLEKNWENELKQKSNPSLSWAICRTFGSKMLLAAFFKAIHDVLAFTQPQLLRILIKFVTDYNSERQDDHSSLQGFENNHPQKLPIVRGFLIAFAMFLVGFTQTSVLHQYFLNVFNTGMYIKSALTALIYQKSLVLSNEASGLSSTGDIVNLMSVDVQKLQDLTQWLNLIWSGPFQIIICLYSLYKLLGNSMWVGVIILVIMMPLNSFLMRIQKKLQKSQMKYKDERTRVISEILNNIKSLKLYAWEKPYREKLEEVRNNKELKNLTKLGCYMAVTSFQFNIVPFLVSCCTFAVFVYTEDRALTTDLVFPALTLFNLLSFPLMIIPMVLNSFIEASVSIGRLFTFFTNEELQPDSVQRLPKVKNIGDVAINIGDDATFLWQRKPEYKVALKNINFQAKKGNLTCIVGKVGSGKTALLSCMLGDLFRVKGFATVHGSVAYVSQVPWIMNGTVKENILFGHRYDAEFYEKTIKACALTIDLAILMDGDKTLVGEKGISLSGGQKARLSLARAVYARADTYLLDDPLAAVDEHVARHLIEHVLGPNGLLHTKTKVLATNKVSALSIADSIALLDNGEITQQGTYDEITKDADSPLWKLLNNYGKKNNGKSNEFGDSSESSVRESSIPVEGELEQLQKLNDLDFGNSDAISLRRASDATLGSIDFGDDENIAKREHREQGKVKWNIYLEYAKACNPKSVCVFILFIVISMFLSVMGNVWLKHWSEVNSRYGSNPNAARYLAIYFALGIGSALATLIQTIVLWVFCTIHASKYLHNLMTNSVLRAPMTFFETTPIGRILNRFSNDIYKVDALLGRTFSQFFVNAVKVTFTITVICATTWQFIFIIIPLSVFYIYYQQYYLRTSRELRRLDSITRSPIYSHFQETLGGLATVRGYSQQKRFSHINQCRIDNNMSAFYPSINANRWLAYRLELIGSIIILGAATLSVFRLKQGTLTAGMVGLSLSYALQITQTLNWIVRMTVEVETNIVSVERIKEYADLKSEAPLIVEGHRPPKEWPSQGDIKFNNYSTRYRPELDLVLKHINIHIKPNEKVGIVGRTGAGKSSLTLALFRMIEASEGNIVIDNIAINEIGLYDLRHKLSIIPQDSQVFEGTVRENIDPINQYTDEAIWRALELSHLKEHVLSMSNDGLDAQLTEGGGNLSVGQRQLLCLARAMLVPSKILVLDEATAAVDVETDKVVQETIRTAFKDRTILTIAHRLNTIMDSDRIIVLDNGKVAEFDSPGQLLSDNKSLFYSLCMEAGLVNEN

Molecular target: T1, YCF1 (vacuolar membrane vesicles purified from DTY165 cells) (Saccharomyces cerevisiae, UniProt P39109)
T1 construct: endogenous in cells; host or cells: S. cerevisiae DTY165 (wild type YCF1), vacuolar membrane vesicles
Assay type: biochemical
Details: 1 mM GSH, 3 mM MgATP, 5 μM gramicidin-D; sigmoidal; read-out: Cd2+ concentration at half-maximal velocity of uptake
Procedure: In experiments involving cadmium transport, dithiothreitol and EGTA were removed from the suspension medium to prevent the attenuation of YCF1-dependent Cd^2+ transport otherwise exerted by these compounds. Vesiculated vacuolar membranes were subjected to three cycles of 50-fold dilution into simplified suspension medium (1.1 M glycerol, 5 mM Tris-Mes, pH 8.0), centrifugation at 100,000× g for 35 minutes and resuspension in the same medium before use.
Singly radiolabeled ^109 Cd.GSn and doubly radio-labeled ^109 Cd[^3 H].GS^n complexes were prepared by sequential gel-filtrationand anion-exchange chromatography of the reaction products generated by incubating 20 mM ^109 CdSO4 (78.4 mCi/mmol) with 40 mM GSH or 40 mM [^3 H]GSH (240 mCi/mmol) in 15 ml 10 mM phosphate buffer (pH 8.0) containing 150 mM KNO3 at 45° C. for 24 hours. For gel-filtration, 2 ml aliquots of the reaction mixture were applied to a column (40×1.5 cm ID) packed with water-equilibrated Sephadex G-1 5, eluted with deionized water and ^109 Cd and/or ^3 H in the fractions was measured by liquid scintillation counting. The fractions encompassed by each of the two ^109 Cd.GSn peaks identified were pooled, lyophilized and redissolved in 4 ml of loading buffer (5 mM Tris-Mes, pH 8.0). […]

With [Cd+2] [Cd^2+] as the compound, how does the Km read?
The Km was 120 µM.
